In EP4563149A1, “LURBINECTEDIN, ECUBECTEDIN AND A RELATED COMPOUND FOR USE IN THE TREATMENT OF SKIN CANCERS” (Pharma Mar, S.A., priority 2023, dated 2025):
At least one structure is not confirmed: it was looked up by name or label, or the drawing left a doubt.

Tested on: MM074 melanospheres
Experiment: Melanosphere viability (CellTiterGlo)
Assay type: cell-based, human
Settings: 72h, doses equivalent to 5×IC50
Description: MM074 proliferative/differentiated cell line were seeded (5×10^4 cells) in ultra-low attachment hydrogel-layered 96 well plates in KO DMEM medium supplemented with 20% KSR, AANE, 2 mM Glutamax, Penicillin/Streptomycin and 100 uM Beta-mercaptoethanol. To allow for melanosphere formation, cells were left to grow for 4 days before drug treatment.
To analyze melanosphere viability after drug treatment, cells were treated with CellTiterGlo reagent (Promega) according to the manufacturer's instructions. Luminescence signals were measured with a Centro XS LB 960 microplate reader (Berthold).

Structure (SMILES) | cell viability in 3D culture
CC(=O)Nc1cccc(-n2c(=O)n(C3CC3)c(=O)c3c(Nc4ccc(I)cc4F)n(C)c(=O)c(C)c32)c1 [trametinib] | unable to reduce cell viability
CCCS(=O)(=O)Nc1ccc(F)c(C(=O)c2c[nH]c3ncc(-c4ccc(Cl)cc4)cc23)c1F [vemurafenib] | unable to reduce cell viability
